To fix the notation:
B1: il2ra_site2_2erj_sap_22_mot_6c2800a769814540b5b47941e710ff28_0001_000000197_0001_35_49_H_._HHH_b1_06288_0001_0000500025_0000001_0_0001 (protein)
chain: SSSSDEEAHKVNELLRQVMRLFREGNPEEAREVLEEARELAEENNDEELREAVELFKEYLSSSSS
B2: il2ra_site2_3nfp_normal_mot_HHH_b1_05627_af2_000000038_0001_43_56_H_._HHH_b2_04370_af2_0001_0000300006_0000001_0 (protein)
chain: SSSSDKAEEYLRIARELIKEAVEAGDEEAARKQLEAAIAAAEALGDEEALEELQEILEKLSSSSS
B3: il2ra_site1_2b5i_sap_13_mot_HHH_b2_00256_000000050_0001_19_35_H_._HHH_b2_06740_0001_0000200023_0000001_0_0001_af2pred_dldesign_0_af2pred (protein)
chain: SKLAEELRYLIERNPKHFVRLVKREALNAGMPEEEVEKLAKELERLLAEGKYDEAIELAVEVISK
B4: il2ra_site2_2erj_normal_mot_HHH_b2_01353_af2_000000049_0001_23_39_H_._ems_3hC_1310_0001_0001_0000300011_0000001_0 (protein)
chain: DEVEELLRLLREASILAFERRDFEAFHLLAEAAKLLAEAQAKRDEELKEEANKYAQRVIEEAESS
B5: il2ra_site1_2b5i_normal_mot_HHH_b1_02271_000000068_0001_1_16_H_._HHH_b2_07355_af2_0001_0000400020_0000001_0 (protein)
chain: SSSSSTRLELMRELDELIKELAEEGDEETDEEVYELAIEASKKRDPELLKEAIELAKRVLSSSSS
B6: il2ra_site2_2erj_sap_18_mot_b5c6f2848cbf55e1ecbd417c35b42da7_0001_af2_000000155_0001_1_14_H_._2bb8f7c4b7b4379f71127615d49396b2_0001_0001_0000200008_0000001_0_00 … (protein)
chain: SSSSSHEEEVRELLEEAKEAFKRGDLHLVYELLVRALHVAAKHQDQELQEEIAEFFERLQSSSSS
B7: il2ra_site1_2b5i_normal_mot_f5ff40796168375b462bec8614a1db4a_0001_1_000000138_0001_53_65_H_._HHH_b1_03868_0001_0000300029_0000001_0_af2pred_dldesign_0_af2pred (protein)
chain: SSSSSSEDYRELVEELIEEAKKEKDPLLRKKLLTLARRVAKKAKDEELIKKVEEVEEEIKSSSSS
B8: il2ra_site2_3nfp_normal_mot_HHH_b2_05281_000000198_0001_39_56_H_._HHH_b1_05218_0001_0000200017_0000001_0 (protein)
chain: SSSSDEERVEELLREVEELLKRGNPEEAQKALQEATHIAYENRNSELFFKIAEYAFALVQSSSSS
B9: il2ra_site2_3nfp_sap_20_mot_HHH_b1_00487_000000023_0001_40_53_H_._c404ac47ecb0312e2f7dfd42d7b7c6cf_0001_af2_0001_0000300012_0000001_0_0001_af2pred_0001_af2pred (protein)
chain: SSSSSDEEHQKFIVRAELYAAKVQPDPRLREEALELARRSAEAHNDEELKELVEEVAEELSSSSS
B10: il2ra_site1_2b5i_normal_mot_HHH_b2_00256_000000050_0001_19_35_H_._HHH_b2_00953_af2_0001_0000200020_0000001_0_af2pred_dldesign_0_af2pred (protein)
chain: SSSSSDLERFAAELLYKAKATLKLTPEQFKELEKLVIALLEQGKSEEELKKELEEFAAKVSSSSS
B11: il2ra_site1_1z92_normal_mot_HHH_b2_00385_000000257_0001_1_19_H_._HHH_b1_07316_0001_0000400043_0000001_0 (protein)
chain: SSSSSWQEEILRSLIRSLERLAEEGNEKALEKLLEFLEIAAKENNDEEAERFVEKLKEELSSSSS
B12: il2ra_site2_2erj_normal_mot_HHH_b1_07806_000000211_0001_42_56_H_._HHH_b1_01569_0001_0000200016_0000001_0 (protein)
chain: SSSSDWLERLYELAELIDRLRANGNPEEAREVLEELEELAEETDSENAKEVAEFLEKQLNSSSSS
B13: il2ra_site1_3nfp_sap_15_mot_HHH_b1_07180_af2_000000260_0001_1_19_H_._HHH_b2_06750_af2_0001_0004600089_0000001_0_0001_af2pred_0001_af2pred_1_swapped (protein)
chain: SSSSSSSAEELLRRAQEAARNGNPEEAREVLEEALELAEENGNKALRKFVESLLRVLESSSSSSS
B14: il2ra_site1_2b5i_normal_mot_ems_3hM_3687_af2_000000248_0001_45_64_H_._HHH_b2_05772_af2_0001_0000200011_0000001_0_af2pred_dldesign_0_af2pred (protein)
chain: SSSSSPELEALAKKAIEEADKAKEAGDRRKALEILEEAHKKLAAADDEELADLMHEKALELSSSS
B15: il2ra_site2_3nfp_normal_mot_HHH_b2_04451_000000238_0001_21_37_H_._HHH_b2_06904_0001_0000300014_0000001_0 (protein)
chain: SSSSSSDEEEIEELLELVEKIDDQLERLQVLLEASKLAAELGDEELAREVLRLFAEIQSSSSSSS
B16: il2ra_site1_1z92_normal_mot_HHH_b2_04090_000000052_0001_1_16_H_._HHH_b2_00407_0001_0000200011_0000001_0_af2pred_0001_af2pred (protein)
chain: SSSSSALELQLEFLLEQIERAIKLGNPRSARRALEMARELAELQNDEEVEEKLEELERLVNSSSS
B17: il2ra_site2_3nfp_sap_24_mot_HHH_b2_03377_000000137_0001_25_41_H_._HHH_b2_02614_0001_0000100004_0000001_0_0001 (protein)
chain: SSSSDVSEEYLKAALALLELAVEEGDKEQFERILETVRAAAEANNDEEVRERLEELEELIKSSSS
B18: il2ra_site2_3nfp_sap_18_mot_HHH_b1_03873_000000295_0001_37_55_H_._3e7f9dc7757c9be4a21a7eaad61dbf0f_0001_1_0001_0000300022_0000001_0_0001 (protein)
chain: NEHLVEEAIELAEELGDPEVAEVLEKLLEEARRTNDPKLRTAVAALAALVRWDPEYAKEAAALYK
B19: il2ra_site1_1z92_sap_11_mot_HHH_b1_00784_af2_000000189_0001_1_17_H_._HHH_b1_07621_af2_0001_0000200027_0000001_0_0001_af2pred_0001_af2pred_1_swapped (protein)
chain: SEVEETLHEAVEKNDEELLKRFIEIALRAAGDPKLVEKFLEILVKRLGLPPEVLERLRELLEELT

These results are taken from paper PMC10163288.

The list shows a part of the results.

In the experiment the target is il2ra, P01589. Put plainly: yeast display titration.
As for B1, the apparent Kd (usually a dissociation constant that holds for the conditions of the assay) was “inactive: no binding seen”. The result for B2 reads “inactive: no binding seen”; that for B3, “inactive: no binding seen”. The result for B4 reads “inactive: no binding seen”; that for B5, “inactive: no binding seen”; that for B6, “inactive: no binding seen”.

In the case of B7, the “apparent Kd” value was “inactive: no binding seen”. The result for B8 reads “inactive: no binding seen”; that for B9, “inactive: no binding seen”. The result for B10 reads “inactive: no binding seen”; that for B11, inactive: > 6.35 µM. With B12 the entry was “inactive: no binding seen”; with B13, “inactive: no binding seen”; with B14, “inactive: no binding seen”. In the case of B15, the “apparent Kd” value is “inactive: no binding seen”. With B16 the entry was “inactive: no binding seen”; with B17, “inactive: no binding seen”. The result for B18 reads “inactive: no binding seen”; that for B19, “inactive: no binding seen”.
